Measurements from patent US12061143B2, “Methods for rapid determinations of antibiotic susceptibility phenotypes” (priority 2018, dated 2024).
At least one compound was matched to its structure with a doubt left.

Columns and labels:
[1] = test system: 10% human blood samples without bacteria inoculation; test: Antibiotic-treated 10% human blood only control (no bacteria), flow cytometry; type: cell-based; details: 10% human blood without bacteria, around the resistance breakpoints of Enterobacteriaceae
Experimental: FIGS. 6A-6D. Antibiotic-treated 10% human blood only results. Cytometric data with (FIG. 6A) Ampicillin (FIG. 6B) Tetracycline (FIG. 6C) Gentamicin. The greyscale plots are the no-antibiotic controls and the black contour plots are the antibiotic-treated data with the antibiotic concentration indicated at each plot. (FIG. 6D) PB-sQF results for FIGS. 6A-6C). […] For each antibiotic, the resistant breakpoints of Enterobacteriaceae are 16 μg/mL for tetracycline and gentamicin and 32 μg/mL for ampicillin.
This confirms that the gentamicin sensitivity of Mu14S observed after blood culture^(1) can also be observed on much shorter timescales with FAST. Overnight plating confirms that initial Mu14S counts were 3, 2, 5 and CFU/mL for tetracycline, gentamicin and ampicillin data after 10-fold dilution of the blood/bacteria mixture, corresponding to FAST being performed on whole blood samples containing ˜30, ˜20 and ˜50 CFU/mL. […] Thus, diluting bacterimic blood specimens 1:9 (v:v) directly into saponin-containing growth medium provides a path to ASTs within 8 hours from initial blood draw, with excellent results matching independent (36-44 hrs) MIC determinations from pure, overnight cultures (˜10^8 CFU/mL) that could only be initiated after (˜24 hr) positive blood culture.

[2] = test system: A. nosocomialis strain M2; test: FAST flow cytometry AST with PB-sQF, bacteria recovered from 10% human blood; type: cell-based; details: M2 spiked in 10% human blood, assayed within 8 hrs of simulated blood draw

## CN(C)[C@@H]1C(O)=C(C(N)=O)C(=O)[C@@]2(O)C(O)=C3C(=O)c4c(O)cccc4[C@@](C)(O)[C@H]3C[C@@H]12 [Tetracycline]
[1]
  scattered light histograms change: do not significantly change
[2]
  PB-sQF FAST susceptibility: susceptible
